Test results as given in PubChem BioAssay AID504444 (National Center for Advancing Translational Sciences (NCATS), 2011).
Out of some 360,000 compounds screened, about 7,500 (2.1%) were called active. Inconclusive means that the source gave no clear call. Such entries were picked first, then a sample of the others. Calls follow the shape of the dose curve; as a rule, active = well fitted inhibition curve with a large enough effect; inconclusive = small, poorly fitted or top-dose-only effect, or effect the other way; inactive = flat fitted curve, though single readings scatter. Potencies beside an inconclusive call are fits to weak or partial responses and may not hold up.

experiment: Nrf2 qHTS screen for inhibitors; settings: A549 ARE-Fluc reporter, luciferase luminescence, 18-24 h; series mostly up to 46 µM; also: nearly all actives have a fitted effect of over 60% in size
How it was run: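 In this cell-based qHTS, ARE-driven firefly luciferase in A549 cells reports Nrf2 activity; the luminescent signal after BugLite lysis is the measured value, with a prior CellTiter-Fluor read for cell health.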
Potency is read from the fitted curve at half-maximal effect.

| Compound | Potency |
| --- | --- |
| COc1cccc(NC(=O)/C(C#N)=C/c2c(C)n(Cc3ccccc3)c3ccccc23)c1 | active: 11.6 µM |
| c1ccc(-c2cnc(CN3CCN(c4ccccc4)CC3)o2)cc1 | inconclusive: 32.6 µM [falling, partial curve, poor fit] |
| Cc1cc(C)cc(NC(=S)NC(=O)C2CC2)c1 | inactive |
| CC(OC(=O)c1ccc(S(=O)(=O)NCc2ccco2)cc1)C(=O)Nc1ccc(Cl)cn1 (configuration not stated) | inactive |
| O=Nc1c2cc3ccccc3[nH]c-2c2ccccc12 | inconclusive: 18.4 µM [activator, single point] |
| O=C(CSc1nc2[nH]c(=O)cc(O)c2s1)Nc1ccc(Cl)c(C(F)(F)F)c1 | inactive |
| CC1(C)CC(=O)C=C(NC2=CC3OC(c4ccccc4)OCC3OC2=O)C1 (configuration not stated) | active: 16.4 µM |
| Cc1cccc(-c2nc3cc([N+](=O)[O-])ccc3o2)c1 | inconclusive: 5.8 µM [activator, full curve] |
| CN(C)CCCN(C(=O)c1cc(-c2cccs2)nc2ccccc12)c1nc2ccc(F)cc2s1 | inconclusive: 20.6 µM [falling, single point] |
| CN(CCCc1cnc[nH]1)C(=S)NCCCN(Cc1ccc(Cl)cc1)c1ccc(Br)cn1 | inactive |
| COc1ccccc1Nc1nc(N)nc(N)c1S(=O)(=O)c1ccccc1 | inactive |
| O=C(/C=C/c1cnc2ccccc2n1)NC1CCCCCC1 | inconclusive: 3.26 µM [activator, full curve] |
| O=C(CSc1nc2ccccc2n1CC(=O)N1CCCC1)NCc1ccc2c(c1)OCO2 | inactive |
| Cc1ccc(N2CCN(Cc3nnc(-c4ccccc4F)o3)CC2)c(C)c1 | inconclusive: 29.1 µM [falling, single point] |
| CNC(C)C#Cc1ccc2c(=O)c3cc(C)c(C)cc3oc2c1 (configuration not stated) | inconclusive: 5.8 µM [activator, partial curve] |
| COc1cc(C)c(C(=O)Oc2cc(C)c(C(=O)O)c(O)c2C)c(OC)c1C | inconclusive: 29.1 µM [falling, single point] |
| O=C(Nc1ccc(-c2nc3cccnc3s2)cc1)C1CCCO1 (configuration not stated) | inconclusive: 0.092 µM [activator, partial curve, poor fit] |
| COc1ccc(N=C2NC(=O)S/C2=C\c2ccc(N(C)C)cc2)cc1 | inconclusive: 4.61 µM [activator, full curve] |
| O=C(C1CCCN(S(=O)(=O)c2ccccc2)C1)N1CCN(c2ccc(F)cc2)CC1 (configuration not stated) | active: 23.1 µM |
| O=C(CSc1cccc2cccnc12)OCC(=O)c1ccccc1 | inactive |
| COc1ccc(OC)c(C(C)NC(=S)NC2CCCCC2)c1 (configuration not stated) | active: 18.4 µM |
| Cc1cccn2c(=O)c3cc(C#N)c(=O)n(-c4nnc(SCc5ccc(F)cc5)s4)c3nc12 | inconclusive: 4.11 µM [activator, single point] |
| CC(Sc1nc2ccccc2s1)C(=O)N1CCOCC1 (configuration not stated) | inconclusive: 20.6 µM [activator, single point] |

| Compound | Potency |
| --- | --- |
| COc1ccc(C(=O)NC(=S)Nc2ccc(Cc3ccncc3)cc2)cc1 | inconclusive: 16.4 µM [falling, single point] |
| N#C/C(=C\c1ccccc1)C(=O)Nc1cc(S(=O)(=O)N2CCOCC2)ccc1N1CCCC1 | inconclusive: 32.6 µM [activator, single point] |
| COc1ccc2[nH]c3c(c2c1)CCN1C(=O)C(CC(=O)NCC24CC5CC(CC(C5)C2)C4)C[C@H](C(=O)N(C(C)C)C(C)C)[C@@]31C (some centres not stated) | inconclusive: 29.1 µM [falling, single point] |
| Cc1ccc(NC(=O)CSc2nc3ccc(Nc4nc(N5CCOCC5)nc(N5CCOCC5)n4)cc3s2)cc1 | inconclusive: 16.4 µM [falling, single point] |
| CCOc1cc(CNCCCN2CCOCC2)cc(Br)c1OCC(=O)Nc1cccc(C(F)(F)F)c1 | inactive |
| COc1cccc(NC(=O)Cn2nnc(C(=O)NCc3ccc4c(c3)OCO4)c2N)c1 | inconclusive: 18.4 µM [activator, single point] |
| CSc1ncc(Cl)c(C(=O)N(C)c2ccccc2)n1 | inactive |
| COc1cc(CC(=O)Nc2ccc(N3CCOCC3)cc2)cc(OC)c1OC | inactive |
| O=C(O)C1CN(C(=O)c2cccc(Br)c2)C1 | inactive |
| Cc1[nH]c2ccc(C(=O)Nc3ccncc3)cc2c1C | active: 11.6 µM |
| O=C(NC(c1ccco1)c1cc(Cl)c2cccnc2c1O)c1ccccc1 (configuration not stated) | inactive |
| O=S(=O)(Cc1ccccc1Cl)NCCc1ccccc1 | inconclusive: 14.6 µM [falling, partial curve, poor fit] |
| O=C(CCCN1C(=O)/C(=C/c2ccccc2Cl)SC1=S)Nc1ccccn1 | active: 20.6 µM |
| O=C(CN1CCc2cc3c(cc2C1)OCCCO3)Nc1cccc([N+](=O)[O-])c1 | inconclusive: 14.6 µM [falling, partial curve] |
| O=C(NCCCN1CCOCC1)c1ccc2c(=O)n(Cc3ccccc3)c(=S)[nH]c2c1 | inconclusive: 29.1 µM [falling, single point] |
| CCOc1ccc(NC(=NCc2ccc3c(c2)OCO3)SC2CC(=O)N(c3ccc(OCC)cc3)C2=O)cc1 (configuration not stated) | active: 14.6 µM |
| O=C(NCc1ccco1)c1ccc2c(c1)N(Cc1ccc(Cl)cc1)C(=O)c1ccccc1S2(=O)=O | inconclusive: 18.4 µM [falling, single point] |
| COc1cc(C(=O)Nc2cccc(-c3nc4cc(C)ccc4o3)c2)cc(OC)c1OC | inconclusive: 7.31 µM [activator, full curve, poor fit] |
| CCCCCn1nc(C)c(/C=N/NC(=O)c2ccoc2C)c1C | inconclusive: 0.58 µM [activator, full curve, poor fit] |
| Clc1ccc(-c2csc(N/N=C/c3cccnc3)n2)c(Cl)c1 | active: 13 µM |
| CC(CCc1ccccc1)NC(=O)c1ccc2nc(N3CCOCC3)sc2c1 (configuration not stated) | inconclusive: 14.6 µM [falling, partial curve, poor fit] |
| CCc1ccc(-c2nc(CS(=O)CC(=O)NCCc3ccccc3)c(C)o2)cc1 (configuration not stated) | inconclusive: 5.17 µM [activator, full curve, poor fit] |
| Cc1nc2cc(NC(=O)Nc3nccs3)ccc2n1C | inconclusive: 16.4 µM [falling, partial curve, poor fit] |

| Compound | Potency |
| --- | --- |
| C#CCN1c2ccccc2Sc2cccnc21 | inconclusive: 14.6 µM [falling, partial curve, poor fit] |
| CCCc1cc2c(=O)c(-c3ccc4c(c3)OCCO4)c(C)oc2cc1OS(C)(=O)=O | inconclusive: 20.6 µM [falling, single point] |
| O=C(c1cc(-c2ccncc2)nc2ccccc12)N1CCN(Cc2ccccc2)CC1 | inactive |
| CC(C)(c1ccccc1)c1ccc(OCCN)cc1 | inactive |
| CCN(c1ccccc1)S(=O)(=O)c1ccc(OCc2c(C)noc2C)cc1 | inactive |
| Cc1ccc(C(=O)Nc2cccc(-c3ccc(N4CCOCC4)nn3)c2)cc1[N+](=O)[O-] | inconclusive: 0.461 µM [activator, full curve] |
| CC(C)C(=O)Nc1ccc(-c2nnc(-c3ccccc3)o2)cc1 | inconclusive: 1.16 µM [activator, full curve] |
| CCc1ccc(S(=O)(=O)c2cn(C)c3cc(N4CCCC4)c(F)cc3c2=O)cc1 | inconclusive: 0.82 µM [falling, full curve, poor fit] |
| COc1cccc(NC(=O)CSc2nc3ccccc3c(=O)n2Cc2cccs2)c1 | inconclusive: 7.31 µM [falling, partial curve, poor fit] |
| Cc1cnc(C(=O)Nc2ccc(S(=O)(=O)N(C(C)C)C(C)C)cc2)cn1 | inconclusive: 5.17 µM [falling, full curve, poor fit] |
| COc1ccc(/C=C\C(=O)O[C@@H]2C(O)C(O[C@@H]3OC(C)[C@H](O[C@@H]4OCC(O[C@H]5O[C@H](CO)[C@@H](O)C(O)C5O)C(O)C4O)C(O)C3O)[C@H](OC(=O)[C@]34CCC(C)(C)C[C@@H]3C3=CCC5[C@@]6(C)CC(O)C(O[C@@H]7OC(CO)C(O)[C@H](O)[C@H]7O)[C@@](C)(C(=O)O)C6CC[C@@]5(C)[C@]3(CO)CC4)O[C@H]2C)cc1 (some centres not stated) | inconclusive: 20.6 µM [falling, single point] |
| O=C(Cn1c(=O)n(Cc2nc(-c3ccccc3)no2)c(=O)c2ccccc21)Nc1cccc(Cl)c1 | inactive |
| Cc1ccc(C)c(Nc2nnc(-c3ccc(C)c(S(=O)(=O)NCC4CCCO4)c3)c3ccccc23)c1 (configuration not stated) | active: 23.1 µM |
| Cc1[nH]c2ccccc2c1N=Nc1c(C)n(C)n(-c2ccccc2)c1=O | inactive |
| COCCCNC(=O)c1ccc2c3c(onc13)-c1ccccc1C2=O | inconclusive: 1.84 µM [activator, partial curve] |
| O=C(CCS(=O)(=O)c1ccccc1)Nc1nc2cc3c(cc2s1)OCCO3 | inconclusive: 2.06 µM [activator, single point] |
| COCCCNC(=O)c1ccc2c(c1)N(Cc1ccccc1F)C(=O)c1ccccc1S2=O (configuration not stated) | inactive |
| CCOc1ccc(NC(=S)NC(=O)/C=C/c2ccc(Br)cc2)c([N+](=O)[O-])c1 | inconclusive: 29.1 µM [falling, partial curve, poor fit] |
| O=c1[nH]c(/C=C/c2ccccc2F)nc2ccccc12 | inconclusive: 0.731 µM [activator, full curve] |
| COc1ccc(C)cc1NC(=O)c1ccc(OCc2c(C)noc2C)cc1 | inconclusive: 5.17 µM [falling, partial curve] |
| CSc1cccc(N2CC(C(=O)N(Cc3nnc(-c4ccccc4Cl)o3)C3CC3)CC2=O)c1 (configuration not stated) | inconclusive: 9.2 µM [falling, partial curve, poor fit] |

2 successive compounds already listed, for reference:

| Compound | Potency |
| --- | --- |
| Cc1ccc(NC(=O)CSc2nc3ccc(Nc4nc(N5CCOCC5)nc(N5CCOCC5)n4)cc3s2)cc1 | inconclusive: 16.4 µM [falling, single point] |
| CCOc1cc(CNCCCN2CCOCC2)cc(Br)c1OCC(=O)Nc1cccc(C(F)(F)F)c1 | inactive |
